{"source": "patent US20050020488", "about": "(published 2005)", "assay": "peptide synthesis", "settings": "late stage modification step"}
{"substance": "N^van-2-(n-Decylamino)ethyl 29-{[(Phosphonomethyl)amino] methyl} Vancomycin", "values": [{"measurement": "crude HPLC purity", "setting": "HPLC area, hydrochloride (di-/trihydrochloride mixture)", "result": "ca. 80% (HPLC area)"}, {"measurement": "step yield", "setting": "di- and trihydrochloride", "result": "˜100%"}]}
